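Mouse JNK3 activity from prestimulated HepG2 lysate, measured as phospho-c-Jun AlphaScreen signal after two hours of kinase reaction plus three hours detection. Each compound ran as a dilution series from about 0.6 nM up to 57.1 µM. Fitted AC50 for either an inhibiting or an activating curve; a lower value means greater potency. Calls come from the fitted dose curve (inhibitor, activator, inactive or inconclusive); every row here is inconclusive, including some full curves, so the exact cut-off is unclear.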

Values are in nM. Every entry below has the call inconclusive. Only part of the assay is shown, chiefly results filed as inconclusive. A potency from a partial, single-point or poor curve is only a rough figure. Some entries filed as inconclusive have a full curve. The first word of each remark tells which way the curve ran; it can be opposite to the aim of the assay.

Oc1ccc(-c2nc(-c3ccc(F)cc3)c(-c3ccncc3)[nH]2)cc1 read potency 12589 nM (inhibitor, partial curve).
NCCS(=O)(=O)O read potency 7943 nM (activator, partial curve, poor fit).
O=C(O)c1ccccc1Nc1ccccc1 read potency 25118 nM (activator, partial curve, poor fit).
BrCC(Br)C1CCC(Br)C(Br)C1 (stereo not drawn) read potency 39810 nM (activator, partial curve).
CS(=O)(=O)c1ccc(/C=N\NC(N)=S)cc1 read potency 3162 nM (activator, partial curve, poor fit).
CN(C)CC/C=C1\c2ccccc2COc2ccccc21 read potency 3.162 nM (activator, full curve, poor fit).
c1cc2cc(c1)C[n+]1ccc(c3ccccc31)NCc1ccc(cc1)CNc1cc[n+](c3ccccc13)C2 read potency 39810 nM (inhibitor, single point).
O=C1C(c2[nH]c3ccccc3c2O)=Nc2ccccc21 read potency 15848 nM (activator, full curve, poor fit).
COc1ccccc1N1CCN(CCCCNS(=O)(=O)c2cccc3c(N(C)C)cccc23)CC1 read potency 39810 nM (activator, partial curve, poor fit).
CC(C)COC(=O)c1ccccc1C(=O)OCC(C)C read potency 19952 nM (activator, partial curve).
O=c1cc(-c2ccc(O)c(O)c2)oc2cccc(O)c12 read potency 7943 nM (inhibitor, full curve).
NCCC[C@@H](CC(=O)N[C@@H]1CCCC[C@H]1C(=O)N[C@H](CC(=O)N[C@@H](CCC(=O)O)CC(=O)O)Cc1ccccc1)NC(=O)C[C@H](CO)NC(=O)[C@@H]1CCCC[C@H]1N read potency 2512 nM (inhibitor, full curve, poor fit).
Nc1c(S(=O)(=O)O)cc(Nc2ccc(Nc3nc(Cl)nc(Nc4ccc(S(=O)(=O)O)cc4)n3)c(S(=O)(=O)O)c2)c2c1C(=O)c1ccccc1C2=O read potency 2512 nM (inhibitor, full curve).
O=c1c(O)c(-c2cc(O)c(O)c(O)c2)oc2cc(O)cc(O)c12 read potency 5012 nM (inhibitor, partial curve).
CN(CCO)Cc1ncccc1O read potency 10000 nM (activator, partial curve, poor fit).
CCC/C=C(\CCC)C(NC(=O)c1ccc(C(F)(F)F)cc1)c1ccccc1 (stereo not drawn) read potency 19952 nM (activator, partial curve).
Cn1cccc1C(=O)N1CCC2(CC1)CCN(c1ccccc1)CC2 read potency 19952 nM (inhibitor, partial curve).
CCCN(CCC)C(=O)[C@@H](CCC(=O)O)NC(=O)c1ccccc1 read potency 15.85 nM (activator, full curve, poor fit).
CCNC(=O)[C@@H]1O[C@@H](n2cnc3c(N)ncnc32)[C@H](O)[C@H]1O read potency 25118 nM (inhibitor, partial curve, poor fit).
OCc1ccc(-c2nn(Cc3ccccc3)c3ccccc23)o1 read potency 15848 nM (inhibitor, partial curve, poor fit).
CNCC[C@H](Oc1ccc(C(F)(F)F)cc1)c1ccccc1 read potency 15848 nM (activator, full curve, poor fit).
Cc1c(C)c2c(c(C)c1O)CC[C@@](C)(CCC[C@@H](C)CCC[C@@H](C)CCCC(C)C)O2 read potency 1 nM (activator, full curve, poor fit).
CN(C(=O)CCCOc1ccc2[nH]c(=O)ccc2c1)C1CCCCC1 read potency 31622 nM (inhibitor, partial curve, poor fit).
CN(C)C(=O)Oc1cccc([N+](C)(C)C)c1 read potency 3162 nM (activator, partial curve, poor fit).
CN(C)CCC[C@@]1(c2ccc(F)cc2)OCc2cc(C#N)ccc21 read potency 2.512 nM (activator, full curve, poor fit).
Cc1nc2ccc(NC(=O)Nc3ccnc4cccnc34)cc2o1 read potency 39810 nM (inhibitor, single point).
O=C(O)c1cc(C(=O)C(=O)c2cc(C(=O)O)c(O)c3ccccc23)c2ccccc2c1O read potency 63.1 nM (activator, full curve).
NCCC[C@@H](CC(=O)N[C@@H]1CCCC[C@H]1C(=O)N[C@H](CC(=O)N[C@@H](CCC(=O)O)CC(=O)O)Cc1c[nH]c2ccccc12)NC(=O)C[C@H](CO)NC(=O)[C@@H]1CNCC[C@H]1N read potency 12589 nM (inhibitor, partial curve, poor fit).
c1ccc2c(c1)-c1cccc3cccc-2c13 read potency 31622 nM (activator, partial curve).
N#C/C(N)=C(/N)C#N read potency 15848 nM (activator, full curve, poor fit).
NNC(=O)c1ccc(O)cc1 read potency 12589 nM (activator, full curve, poor fit).
O=C(c1ccco1)N1CCC2(CC1)CCN(c1cccc(-c3ccccc3)c1)CC2 read potency 15848 nM (inhibitor, partial curve).
CCOS(C)(=O)=O read potency 63.1 nM (activator, full curve).

The first 4 entries again:

SMILES,potency (nM),curve as filed
Oc1ccc(-c2nc(-c3ccc(F)cc3)c(-c3ccncc3)[nH]2)cc1,12589,"inhibitor, partial curve"
NCCS(=O)(=O)O,7943,"activator, partial curve, poor fit"
O=C(O)c1ccccc1Nc1ccccc1,25118,"activator, partial curve, poor fit"
BrCC(Br)C1CCC(Br)C(Br)C1 (stereo not drawn),39810,"activator, partial curve"

From PubChem BioAssay record AID530 (NCATS, 2006).